Values of other authors as cited in US20260182579A1, “ENZYMATICALLY PRODUCED BIOPESTICIDES” (ZYMtronix Catalytic Systems, Inc., priority 2022, published 2026).
Some entries share one result that the patent states for a list of compounds. At least one structure is not confirmed: it was looked up by name or label, or the drawing left a doubt.

Tested on: microbes
Details: Bosch, van Doorne et al. 2000

SMILES | concentration that can result in inhibition of cell growth [µM]
N#CSO [hypothiocyanite] | ≥ 20
OI [hypoiodite] | ≥ 20
